According to publication PMC9064840:
These are yes or no findings as the source states them, for the method shown. In cells and extracts the contact can be indirect. Here binding means that the protein was enriched with, or labelled near, the bait; the list need not be complete.

Chains of the proteins cited; added tags and fusions are not shown. Residues count along the entry.
UniProt Q01973, residues 30-937: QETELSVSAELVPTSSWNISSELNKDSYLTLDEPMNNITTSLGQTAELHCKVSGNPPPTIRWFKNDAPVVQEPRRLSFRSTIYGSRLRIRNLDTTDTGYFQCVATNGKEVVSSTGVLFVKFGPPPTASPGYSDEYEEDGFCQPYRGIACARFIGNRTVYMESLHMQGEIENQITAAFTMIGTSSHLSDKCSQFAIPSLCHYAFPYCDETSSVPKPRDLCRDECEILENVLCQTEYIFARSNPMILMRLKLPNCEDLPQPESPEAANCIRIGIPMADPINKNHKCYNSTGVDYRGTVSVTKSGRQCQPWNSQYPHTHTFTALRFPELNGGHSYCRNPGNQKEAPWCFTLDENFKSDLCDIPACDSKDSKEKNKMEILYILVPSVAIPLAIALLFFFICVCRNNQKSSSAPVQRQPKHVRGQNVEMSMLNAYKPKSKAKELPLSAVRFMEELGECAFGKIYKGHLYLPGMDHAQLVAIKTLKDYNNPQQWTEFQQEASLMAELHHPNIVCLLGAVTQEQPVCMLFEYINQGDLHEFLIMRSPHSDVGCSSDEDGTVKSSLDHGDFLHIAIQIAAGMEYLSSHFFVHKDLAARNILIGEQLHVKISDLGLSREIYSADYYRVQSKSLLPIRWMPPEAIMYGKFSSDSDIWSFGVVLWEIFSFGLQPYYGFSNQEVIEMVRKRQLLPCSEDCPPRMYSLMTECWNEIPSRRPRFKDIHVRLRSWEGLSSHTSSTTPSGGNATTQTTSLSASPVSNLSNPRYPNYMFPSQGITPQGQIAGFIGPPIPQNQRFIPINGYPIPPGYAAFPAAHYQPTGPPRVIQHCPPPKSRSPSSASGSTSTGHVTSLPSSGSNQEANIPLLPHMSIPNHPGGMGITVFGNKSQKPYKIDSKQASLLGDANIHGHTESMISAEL
UniProt Q01974, residues 34-943: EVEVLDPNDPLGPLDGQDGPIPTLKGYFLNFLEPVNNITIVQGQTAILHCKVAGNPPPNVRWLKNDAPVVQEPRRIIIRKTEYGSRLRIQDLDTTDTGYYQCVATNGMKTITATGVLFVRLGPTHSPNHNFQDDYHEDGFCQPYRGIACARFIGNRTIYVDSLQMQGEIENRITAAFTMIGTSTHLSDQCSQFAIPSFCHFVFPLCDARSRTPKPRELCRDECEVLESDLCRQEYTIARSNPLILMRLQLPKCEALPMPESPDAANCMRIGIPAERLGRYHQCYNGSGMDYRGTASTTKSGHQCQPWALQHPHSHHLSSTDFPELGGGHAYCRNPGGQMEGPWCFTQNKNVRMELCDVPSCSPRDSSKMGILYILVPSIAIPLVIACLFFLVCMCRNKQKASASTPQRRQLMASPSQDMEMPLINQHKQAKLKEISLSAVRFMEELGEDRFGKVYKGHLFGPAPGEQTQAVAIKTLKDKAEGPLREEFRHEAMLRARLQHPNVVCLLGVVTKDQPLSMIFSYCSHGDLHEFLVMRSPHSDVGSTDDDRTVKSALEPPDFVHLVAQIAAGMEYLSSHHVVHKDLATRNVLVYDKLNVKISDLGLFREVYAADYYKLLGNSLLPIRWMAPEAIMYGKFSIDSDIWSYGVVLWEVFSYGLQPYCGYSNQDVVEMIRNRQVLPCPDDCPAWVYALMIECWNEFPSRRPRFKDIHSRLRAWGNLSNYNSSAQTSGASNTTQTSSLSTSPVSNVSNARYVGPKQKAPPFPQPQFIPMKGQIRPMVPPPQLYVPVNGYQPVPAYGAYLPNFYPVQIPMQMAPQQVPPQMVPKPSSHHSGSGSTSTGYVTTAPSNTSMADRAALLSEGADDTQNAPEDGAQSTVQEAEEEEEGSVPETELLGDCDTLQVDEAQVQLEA
UniProt Q9UM54: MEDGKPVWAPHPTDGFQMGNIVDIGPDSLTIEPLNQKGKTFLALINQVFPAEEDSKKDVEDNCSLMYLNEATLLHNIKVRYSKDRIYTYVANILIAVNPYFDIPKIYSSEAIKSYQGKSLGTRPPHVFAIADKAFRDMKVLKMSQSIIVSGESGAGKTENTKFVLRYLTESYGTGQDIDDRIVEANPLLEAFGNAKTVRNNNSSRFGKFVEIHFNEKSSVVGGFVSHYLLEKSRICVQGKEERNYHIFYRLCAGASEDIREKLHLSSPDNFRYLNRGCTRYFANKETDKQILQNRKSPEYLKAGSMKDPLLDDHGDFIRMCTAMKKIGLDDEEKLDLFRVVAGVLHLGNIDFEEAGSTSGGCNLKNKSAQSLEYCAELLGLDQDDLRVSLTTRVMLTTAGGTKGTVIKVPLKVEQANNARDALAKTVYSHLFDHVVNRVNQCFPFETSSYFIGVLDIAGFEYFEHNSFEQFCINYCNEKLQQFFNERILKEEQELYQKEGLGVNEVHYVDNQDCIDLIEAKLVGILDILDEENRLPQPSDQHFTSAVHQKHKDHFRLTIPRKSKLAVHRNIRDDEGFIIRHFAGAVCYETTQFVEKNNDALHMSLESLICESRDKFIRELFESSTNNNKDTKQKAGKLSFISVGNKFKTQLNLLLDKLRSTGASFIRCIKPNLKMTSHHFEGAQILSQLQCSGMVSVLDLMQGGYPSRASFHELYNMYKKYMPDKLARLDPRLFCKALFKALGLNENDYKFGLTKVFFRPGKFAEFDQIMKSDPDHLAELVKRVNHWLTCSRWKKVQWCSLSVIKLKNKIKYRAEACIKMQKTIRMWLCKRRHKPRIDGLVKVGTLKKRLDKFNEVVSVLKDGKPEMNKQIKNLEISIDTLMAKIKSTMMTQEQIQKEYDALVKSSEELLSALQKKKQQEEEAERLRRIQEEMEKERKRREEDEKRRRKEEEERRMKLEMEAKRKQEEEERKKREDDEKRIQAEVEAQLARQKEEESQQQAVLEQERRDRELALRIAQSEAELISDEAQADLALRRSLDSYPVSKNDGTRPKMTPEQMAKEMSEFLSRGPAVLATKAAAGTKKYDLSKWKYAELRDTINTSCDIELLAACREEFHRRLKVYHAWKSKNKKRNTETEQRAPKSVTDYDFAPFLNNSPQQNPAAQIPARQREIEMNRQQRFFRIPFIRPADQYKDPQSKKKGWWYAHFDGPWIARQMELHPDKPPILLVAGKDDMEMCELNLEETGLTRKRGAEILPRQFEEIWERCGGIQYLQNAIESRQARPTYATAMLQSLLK
UniProt O00165: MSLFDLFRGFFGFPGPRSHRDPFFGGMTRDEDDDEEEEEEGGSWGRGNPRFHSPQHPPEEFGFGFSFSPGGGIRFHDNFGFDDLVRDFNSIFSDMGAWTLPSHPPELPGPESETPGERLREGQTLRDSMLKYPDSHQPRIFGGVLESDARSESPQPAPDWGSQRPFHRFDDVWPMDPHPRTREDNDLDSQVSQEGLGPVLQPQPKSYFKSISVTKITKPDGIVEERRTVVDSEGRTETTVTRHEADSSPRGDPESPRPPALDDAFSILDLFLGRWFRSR
UniProt O14641: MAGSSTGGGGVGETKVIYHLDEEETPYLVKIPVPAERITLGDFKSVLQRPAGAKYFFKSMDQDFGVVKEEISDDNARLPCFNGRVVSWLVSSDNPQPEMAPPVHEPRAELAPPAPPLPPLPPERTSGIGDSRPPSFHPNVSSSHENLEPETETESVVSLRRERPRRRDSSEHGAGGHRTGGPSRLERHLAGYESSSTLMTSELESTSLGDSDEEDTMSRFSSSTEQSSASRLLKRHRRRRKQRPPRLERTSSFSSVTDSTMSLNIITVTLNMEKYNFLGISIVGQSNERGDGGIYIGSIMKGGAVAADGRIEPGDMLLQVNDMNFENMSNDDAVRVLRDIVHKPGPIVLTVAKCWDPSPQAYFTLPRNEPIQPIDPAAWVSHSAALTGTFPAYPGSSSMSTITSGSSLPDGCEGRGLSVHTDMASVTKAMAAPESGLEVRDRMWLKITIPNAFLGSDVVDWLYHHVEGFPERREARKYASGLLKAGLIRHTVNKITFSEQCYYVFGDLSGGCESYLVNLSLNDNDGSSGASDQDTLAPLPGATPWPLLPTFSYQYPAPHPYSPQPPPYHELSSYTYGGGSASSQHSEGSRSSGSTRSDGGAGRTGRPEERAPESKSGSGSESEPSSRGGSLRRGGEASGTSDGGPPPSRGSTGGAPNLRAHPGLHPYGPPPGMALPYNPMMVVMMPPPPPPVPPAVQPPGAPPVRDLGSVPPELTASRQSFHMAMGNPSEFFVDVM
UniProt Q9H792: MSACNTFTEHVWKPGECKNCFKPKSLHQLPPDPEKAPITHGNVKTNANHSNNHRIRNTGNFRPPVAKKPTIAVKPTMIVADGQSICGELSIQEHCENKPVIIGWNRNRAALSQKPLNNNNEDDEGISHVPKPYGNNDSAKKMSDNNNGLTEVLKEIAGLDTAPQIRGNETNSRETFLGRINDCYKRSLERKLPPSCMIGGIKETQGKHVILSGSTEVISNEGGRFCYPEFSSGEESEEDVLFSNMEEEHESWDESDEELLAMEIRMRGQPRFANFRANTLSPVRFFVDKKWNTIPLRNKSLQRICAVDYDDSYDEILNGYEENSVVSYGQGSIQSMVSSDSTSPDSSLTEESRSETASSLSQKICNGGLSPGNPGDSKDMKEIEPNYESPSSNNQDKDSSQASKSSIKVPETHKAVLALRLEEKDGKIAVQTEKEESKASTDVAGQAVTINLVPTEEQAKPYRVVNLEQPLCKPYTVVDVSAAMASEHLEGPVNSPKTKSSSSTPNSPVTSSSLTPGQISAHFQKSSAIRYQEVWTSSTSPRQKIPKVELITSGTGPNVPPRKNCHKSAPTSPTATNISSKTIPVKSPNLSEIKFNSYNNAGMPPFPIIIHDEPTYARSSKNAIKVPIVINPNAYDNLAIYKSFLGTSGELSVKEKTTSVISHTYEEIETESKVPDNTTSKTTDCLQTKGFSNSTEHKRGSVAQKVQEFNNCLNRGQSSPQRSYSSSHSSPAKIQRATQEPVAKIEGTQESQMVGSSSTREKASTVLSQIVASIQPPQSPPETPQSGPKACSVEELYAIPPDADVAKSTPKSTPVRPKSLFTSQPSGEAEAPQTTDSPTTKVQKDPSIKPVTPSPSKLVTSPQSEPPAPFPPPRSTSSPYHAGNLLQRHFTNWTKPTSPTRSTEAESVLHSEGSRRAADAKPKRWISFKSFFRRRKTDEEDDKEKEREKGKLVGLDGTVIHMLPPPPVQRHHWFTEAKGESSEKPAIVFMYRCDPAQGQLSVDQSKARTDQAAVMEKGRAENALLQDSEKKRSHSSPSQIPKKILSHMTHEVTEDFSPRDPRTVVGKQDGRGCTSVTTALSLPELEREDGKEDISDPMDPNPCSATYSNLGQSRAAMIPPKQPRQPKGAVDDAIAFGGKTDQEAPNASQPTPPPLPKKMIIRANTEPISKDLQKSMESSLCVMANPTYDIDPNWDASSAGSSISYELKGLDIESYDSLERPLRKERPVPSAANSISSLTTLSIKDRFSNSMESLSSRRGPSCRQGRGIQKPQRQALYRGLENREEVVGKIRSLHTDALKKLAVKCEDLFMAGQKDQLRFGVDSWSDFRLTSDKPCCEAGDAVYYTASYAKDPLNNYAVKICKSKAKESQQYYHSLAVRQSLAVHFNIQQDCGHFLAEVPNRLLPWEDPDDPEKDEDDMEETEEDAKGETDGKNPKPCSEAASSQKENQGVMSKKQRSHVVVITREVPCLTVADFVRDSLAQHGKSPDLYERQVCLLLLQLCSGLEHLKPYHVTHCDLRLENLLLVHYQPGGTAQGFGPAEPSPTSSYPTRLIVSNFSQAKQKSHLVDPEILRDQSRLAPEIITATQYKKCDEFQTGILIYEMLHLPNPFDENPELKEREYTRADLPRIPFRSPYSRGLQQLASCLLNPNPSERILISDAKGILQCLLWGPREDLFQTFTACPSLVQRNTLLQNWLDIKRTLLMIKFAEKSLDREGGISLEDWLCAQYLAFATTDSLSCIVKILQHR
UniProt Q9NYB9: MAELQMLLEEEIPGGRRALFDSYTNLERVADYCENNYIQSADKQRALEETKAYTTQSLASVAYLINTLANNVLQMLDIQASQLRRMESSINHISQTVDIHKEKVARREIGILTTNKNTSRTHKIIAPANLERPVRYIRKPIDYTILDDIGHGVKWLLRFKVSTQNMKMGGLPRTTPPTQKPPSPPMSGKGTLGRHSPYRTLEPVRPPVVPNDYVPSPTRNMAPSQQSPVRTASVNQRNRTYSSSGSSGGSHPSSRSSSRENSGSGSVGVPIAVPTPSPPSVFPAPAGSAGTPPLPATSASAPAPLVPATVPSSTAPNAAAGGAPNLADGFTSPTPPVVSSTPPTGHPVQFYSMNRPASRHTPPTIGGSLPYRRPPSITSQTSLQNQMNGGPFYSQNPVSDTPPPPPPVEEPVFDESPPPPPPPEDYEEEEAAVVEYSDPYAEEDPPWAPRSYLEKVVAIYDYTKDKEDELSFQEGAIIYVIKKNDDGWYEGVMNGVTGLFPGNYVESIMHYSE

Key:
MAC-tagged ROR1 (human) [1] = target: MAC-tagged ROR1 (human) (UniProt Q01973); test: proximity labelling; BioID: MAC-tagged ROR1 as bait, induced with tetracycline and 50 μM biotin in Flp-In T-REx 293 cells; 100 µM pervanadate for 15 min before harvest; cells given water or 1 µM GZD824 for 1 h; two biological replicates; high-confidence interactors after statistical filtering
MAC-tagged ROR1 (human) [2] = target: MAC-tagged ROR1 (human) (UniProt Q01973); test: affinity purification with mass spectrometry; MAC-tagged ROR1 as bait, induced with 1 μg/ml tetracycline for 24 h in Flp-In T-REx 293 cells; 100 µM pervanadate for 15 min before harvest; cells given water or 1 µM GZD824 for 1 h; two biological replicates; high-confidence interactors after statistical filtering

binding (MAC-tagged ROR1 (human) [1])	binding (MAC-tagged ROR1 (human) [2])	Molecule
binds	–	β-catenin (from UniProt P35222 1-781)
binds	–	PIK3R1 (from UniProt P27986 1-724)
binds	–	ROR2 (from UniProt Q01974 34-943) (receptor)
binds	–	DVL1 (protein, UniProt O14640 1-695) MAETKIIYHMDEEETPYLVKLPVAPERVTLADFKNVLSNRPVHAYKFFFKSMDQDFGVVKEEIFDDNAKLPCFNGRVVSWLVLAEGAHSDAGSQGTDSHTDLPPPLERTGGIGDSRPPSFHPNVASSRDGMDNETGTESMVSHRRERARRRNREEAARTNGHPRGDRRRDVGLPPDSASTALSSELESSSFVDSDEDGSTSRLSSSTEQSTSSRLIRKHKRRRRKQRLRQADRASSFSSITDSTMSLNIVTVTLNMERHHFLGISIVGQSNDRGDGGIYIGSIMKGGAVAADGRIEPGDMLLQVNDVNFENMSNDDAVRVLREIVSQTGPISLTVAKCWDPTPRSYFTVPRADPVRPIDPAAWLSHTAALTGALPRYGTSPCSSAVTRTSSSSLTSSVPGAPQLEEAPLTVKSDMSAVVRVMQLPDSGLEIRDRMWLKITIANAVIGADVVDWLYTHVEGFKERREARKYASSLLKHGFLRHTVNKITFSEQCYYVFGDLCSNLATLNLNSGSSGTSDQDTLAPLPHPAAPWPLGQGYPYQYPGPPPCFPPAYQDPGFSYGSGSTGSQQSEGSKSSGSTRSSRRAPGREKERRAAGAGGSGSESDHTAPSGVGSSWRERPAGQLSRGSSPRSQASATAPGLPPPHPTTKAYTVVGGPPGGPPVRELAAVPPELTGSRQSFQKAMGNPCEFFVDIM
–	binds	STT3 oligosaccharyl-transferase STT3 Complex Catalytic Subunit B (protein, UniProt Q8TCJ2 1-826) MAEPSAPESKHKSSLNSSPWSGLMALGNSRHGHHGPGAQCAHKAAGGAAPPKPAPAGLSGGLSQPAGWQSLLSFTILFLAWLAGFSSRLFAVIRFESIIHEFDPWFNYRSTHHLASHGFYEFLNWFDERAWYPLGRIVGGTVYPGLMITAGLIHWILNTLNITVHIRDVCVFLAPTFSGLTSISTFLLTRELWNQGAGLLAACFIAIVPGYISRSVAGSFDNEGIAIFALQFTYYLWVKSVKTGSVFWTMCCCLSYFYMVSAWGGYVFIINLIPLHVFVLLLMQRYSKRVYIAYSTFYIVGLILSMQIPFVGFQPIRTSEHMAAAGVFALLQAYAFLQYLRDRLTKQEFQTLFFLGVSLAAGAVFLSVIYLTYTGYIAPWSGRFYSLWDTGYAKIHIPIIASVSEHQPTTWVSFFFDLHILVCTFPAGLWFCIKNINDERVFVALYAISAVYFAGVMVRLMLTLTPVVCMLSAIAFSNVFEHYLGDDMKRENPPVEDSSDEDDKRNQGNLYDKAGKVRKHATEQEKTEEGLGPNIKSIVTMLMLMLLMMFAVHCTWVTSNAYSSPSVVLASYNHDGTRNILDDFREAYFWLRQNTDEHARVMSWWDYGYQIAGMANRTTLVDNNTWNNSHIALVGKAMSSNETAAYKIMRTLDVDYVLVIFGGVIGYSGDDINKFLWMVRIAEGEHPKDIRESDYFTPQGEFRVDKAGSPTLLNCLMYKMSYYRFGEMQLDFRTPPGFDRTRNAEIGNKDIKFKHLEEAFTSEHWLVRIYKVKAPDNRETLDHKPRVTNIFPKQKYLSKKTTKRKRGYIKNKLVFKKGKKISKKTV
–	binds	RPN1 (protein, UniProt P04843 24-607) ASSEAPPLINEDVKRTVDLSSHLAKVTAEVVLAHLGGGSTSRATSFLLALEPELEARLAHLGVQVKGEDEEENNLEVRETKIKGKSGRFFTVKLPVALDPGAKISVIVETVYTHVLHPYPTQITQSEKQFVVFEGNHYFYSPYPTKTQTMRVKLASRNVESYTKLGNPTRSEDLLDYGPFRDVPAYSQDTFKVHYENNSPFLTITSMTRVIEVSHWGNIAVEENVDLKHTGAVLKGPFSRYDYQRQPDSGISSIRSFKTILPAAAQDVYYRDEIGNVSTSHLLILDDSVEMEIRPRFPLFGGWKTHYIVGYNLPSYEYLYNLGDQYALKMRFVDHVFDEQVIDSLTVKIILPEGAKNIEIDSPYEISRAPDELHYTYLDTFGRPVIVAYKKNLVEQHIQDIVVHYTFNKVLMLQEPLLVVAAFYILFFTVIIYVRLDFSITKDPAAEARMKVACITEQVLTLVNKRIGLYRHFDETVNRYKQSRDISTLNSGKKSLETEHKALTSEIALLQSRLKTEGSDLCDRVSEMQKLDAQVKELVLKSAVEAERLVAGKLKKDTYIENEKLISGKRQELVTKIDHILDAL
–	binds	DDOST (protein, UniProt P39656 43-456) SGPRTLVLLDNLNVRETHSLFFRSLKDRGFELTFKTADDPSLSLIKYGEFLYDNLIIFSPSVEDFGGNINVETISAFIDGGGSVLVAASSDIGDPLRELGSECGIEFDEEKTAVIDHHNYDISDLGQHTLIVADTENLLKAPTIVGKSSLNPILFRGVGMVADPDNPLVLDILTGSSTSYSFFPDKPITQYPHAVGKNTLLIAGLQARNNARVIFSGSLDFFSDSFFNSAVQKAAPGSQRYSQTGNYELAVALSRWVFKEEGVLRVGPVSHHRVGETAPPNAYTVTDLVEYSIVIQQLSNGKWVPFDGDDIQLEFVRIDPFVRTFLKKKGGKYSVQFKLPDVYGVFQFKVDYNRLGYTHLYSSTQVSVRPLQHTQYERFIPSAYPYYASAFSMMLGLFIFSIVFLHMKEKEKSD
binds	–	TAB1 (protein, UniProt Q15750 1-504) MAAQRRSLLQSEQQPSWTDDLPLCHLSGVGSASNRSYSADGKGTESHPPEDSWLKFRSENNCFLYGVFNGYDGNRVTNFVAQRLSAELLLGQLNAEHAEADVRRVLLQAFDVVERSFLESIDDALAEKASLQSQLPEGVPQHQLPPQYQKILERLKTLEREISGGAMAVVAVLLNNKLYVANVGTNRALLCKSTVDGLQVTQLNVDHTTENEDELFRLSQLGLDAGKIKQVGIICGQESTRRIGDYKVKYGYTDIDLLSAAKSKPIIAEPEIHGAQPLDGVTGFLVLMSEGLYKALEAAHGPGQANQEIAAMIDTEFAKQTSLDAVAQAVVDRVKRIHSDTFASGGERARFCPRHEDMTLLVRNFGYPLGEMSQPTPSPAPAAGGRVYPVSVPYSSAQSTSKTSVTLSLVMPSQGQMVNGAHSASTLDEATPTLTNQSPTLTLQSTNTHTQSSSSSSDGGLFRSRPAHSLPPGEDGRVEPYVDFAEFYRLWSVDHGEQSVVTAP

More lines, now with the values behind:

Molecule	binding (MAC-tagged ROR1 (human) [1])	binding (MAC-tagged ROR1 (human) [2])
MYO6 (from UniProt Q9UM54 1-1294)	binds	–
HCLS1-associated protein X-1 (from UniProt O00165 1-279)	–	binds
DVL2 (from UniProt O14641 1-736)	binds	–
GRB2 (from UniProt P62993 1-217)	binds	–
PEAK1 (from UniProt Q9H792 1-1746)	binds	–
PIK3R2 (from UniProt O00459 1-728)	binds	–
ABI2 (from UniProt Q9NYB9 1-513)	binds	–
VANGL1 (protein, UniProt Q8TAA9 1-524) MDTESTYSGYSYYSSHSKKSHRQGERTRERHKSPRNKDGRGSEKSVTIQPPTGEPLLGNDSTRTEEVQDDNWGETTTAITGTSEHSISQEDIARISKDMEDSVGLDCKRYLGLTVASFLGLLVFLTPIAFILLPPILWRDELEPCGTICEGLFISMAFKLLILLIGTWALFFRKRRADMPRVFVFRALLLVLIFLFVVSYWLFYGVRILDSRDRNYQGIVQYAVSLVDALLFIHYLAIVLLELRQLQPMFTLQVVRSTDGESRFYSLGHLSIQRAALVVLENYYKDFTIYNPNLLTASKFRAAKHMAGLKVYNVDGPSNNATGQSRAMIAAAARRRDSSHNELYYEEAEHERRVKKRKARLVVAVEEAFIHIQRLQAEEQQKAPGEVMDPREAAQAIFPSMARALQKYLRITRQQNYHSMESILQHLAFCITNGMTPKAFLERYLSAGPTLQYDKDRWLSTQWRLVSDEAVTNGLRDGIVFVLKCLDFSLVVNVKKIPFIILSEEFIDPKSHKFVLRLQSETSV	binds	–
MAGT1 (protein, UniProt Q9H0U3 30-335) QRKKEMVLSEKVSQLMEWTNKRPVIRMNGDKFRRLVKAPPRNYSVIVMFTALQLHRQCVVCKQADEEFQILANSWRYSSAFTNRIFFAMVDFDEGSDVFQMLNMNSAPTFINFPAKGKPKRGDTYELQVRGFSAEQIARWIADRTDVNIRVIRPPNYAGPLMLGLLLAVIGGLVYLRRSNMEFLFNKTGWAFAALCFVLAMTSGQMWNHIRGPPYAHKNPHTGHVNYIHGSSQAQFVAETHIVLLFNGGVTLGMVLLCEAATSDMDIGKRKIMCVAGIGLVVLFFSWMLSIFRSKYHGYPYSFLMS	–	binds
TAB2 (protein, UniProt Q9NYJ8 1-693) MAQGSHQIDFQVLHDLRQKFPEVPEVVVSRCMLQNNNNLDACCAVLSQESTRYLYGEGDLNFSDDSGISGLRNHMTSLNLDLQSQNIYHHGREGSRMNGSRTLTHSISDGQLQGGQSNSELFQQEPQTAPAQVPQGFNVFGMSSSSGASNSAPHLGFHLGSKGTSSLSQQTPRFNPIMVTLAPNIQTGRNTPTSLHIHGVPPPVLNSPQGNSIYIRPYITTPGGTTRQTQQHSGWVSQFNPMNPQQVYQPSQPGPWTTCPASNPLSHTSSQQPNQQGHQTSHVYMPISSPTTSQPPTIHSSGSSQSSAHSQYNIQNISTGPRKNQIEIKLEPPQRNNSSKLRSSGPRTSSTSSSVNSQTLNRNQPTVYIAASPPNTDELMSRSQPKVYISANAATGDEQVMRNQPTLFISTNSGASAASRNMSGQVSMGPAFIHHHPPKSRAIGNNSATSPRVVVTQPNTKYTFKITVSPNKPPAVSPGVVSPTFELTNLLNHPDHYVETENIQHLTDPTLAHVDRISETRKLSMGSDDAAYTQALLVHQKARMERLQRELEIQKKKLDKLKSEVNEMENNLTRRRLKRSNSISQIPSLEEMQQLRSCNRQLQIDIDCLTKEIDLFQARGPHFNPSAIHNFYDNIGFVGPVPPKPKDQRSIIKTPKTQDTEDDEGAQWNCTACTFLNHPALIRCEQCEMPRHF	binds	–
TAB3 (protein, UniProt Q8N5C8 1-712) MAQSSPQLDIQVLHDLRQRFPEIPEGVVSQCMLQNNNNLEACCRALSQESSKYLYMEYHSPDDNRMNRNRLLHINLGIHSPSSYHPGDGAQLNGGRTLVHSSSDGHIDPQHAAGKQLICLVQEPHSAPAVVAATPNYNPFFMNEQNRSAATPPSQPPQQPSSMQTGMNPSAMQGPSPPPPPPSYMHIPRYSTNPITVTVSQNLPSGQTVPRALQILPQIPSNLYGSPGSIYIRQTSQSSSGRQTPQSTPWQSSPQGPVPHYSQRPLPVYPHQQNYQPSQYSPKQQQIPQSAYHSPPPSQCPSPFSSPQHQVQPSQLGHIFMPPSPSTTPPHPYQQGPPSYQKQGSHSVAYLPYTASSLSKGSMKKIEITVEPSQRPGTAINRSPSPISNQPSPRNQHSLYTATTPPSSSPSRGISSQPKPPFSVNPVYITYTQPTGPSCTPSPSPRVIPNPTTVFKITVGRATTENLLNLVDQEERSAAPEPIQPISVIPGSGGEKGSHKYQRSSSSGSDDYAYTQALLLHQRARMERLAKQLKLEKEELERLKSEVNGMEHDLMQRRLRRVSCTTAIPTPEEMTRLRSMNRQLQINVDCTLKEVDLLQSRGNFDPKAMNNFYDNIEPGPVVPPKPSKKDSSDPCTIERKARRISVTSKVQADIHDTQAAAADEHRTGSTQSPRTQPRDEDYEGAPWNCDSCTFLNHPALNRCEQCEMPRYT	binds	–
